Results on 8 molecules are retold here after PubChem BioAssay AID256 (DTP/NCI, 2004).

The list does not hold the whole screen: it gathers some chemical classes. Not every dose and run of a compound is shown. T/C is the treated group as % of the vehicle group. Some entries give survivors of the animals treated and no T/C: the source holds a T/C of zero for them, seemingly a mark for toxic or unscored doses. Some survivor counts are full or nearly so, which does not show that the dose was tolerated: survival well below the control is almost never listed, so the zero probably covers shortened survival too. Counts of survivors are from the toxicity check (mostly the fifth day) where no day follows; animals may have died later. Schedule codes are those of the source, read here as Q, the interval in days (D) or hours (H), X, the number of doses. Where survival is the endpoint, the PubChem record calls one and a half times the control and up active, and a quarter to a half above the control has no call in these data; cut-offs in other NCI protocols can differ. Some entries hold several experiments; the results are listed from low to high. Some T/C values are marked as having no survivor count here; that says nothing about deaths at the dose. Some T/C values carry the count of animals alive at the toxicity check (mostly the fifth day); without a count or a note in brackets, all were alive then.

The subject of the assay is CD2F1 mice, L1210 leukemia ip, survival T/C. Description: NCI In Vivo Anticancer Drug Screen. Data for tumor model L1210 Leukemia (intraperitoneal) in CD2F1 (CDF1) mice. The conditions noted are these: T/C endpoint: mean survival time, higher T/C = longer survival. The essentials:
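Transplantable tumor in mice; compound-treated vs vehicle-treated groups. Read-out = treated/control ratio of the measured endpoint.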

The mark [1] stands for this setting: dose: 400.0 mg/kg/injection, schedule: Q01DX001 (ip), vehicle: DMSO.
The mark [2] stands for this setting: dose: 100.0 mg/kg/injection, schedule: Q04DX003 (ip), vehicle: saline.
Where [3] appears, read: dose: 200.0 mg/kg/injection, schedule: Q04DX003 (ip), vehicle: saline.

On to `O=P1(N(CCCl)CCCl)NCCC(C(F)(F)F)O1` (centres undefined), for which the T/C is, setting by setting: (dose: 7.8 mg/kg/injection, schedule: Q01DX001 (ip), vehicle: Klucel (hydroxypropylcellulose) (HPC)) 108 % of control; (dose: 7.8 mg/kg/injection, schedule: Q01DX005 (ip), vehicle: Klucel (hydroxypropylcellulose) (HPC)) 117 % of control; (dose: 15.6 mg/kg/injection, schedule: Q01DX001 (ip), vehicle: Klucel (hydroxypropylcellulose) (HPC)) 119 % of control; (dose: 15.6 mg/kg/injection, schedule: Q01DX005 (ip), vehicle: Klucel (hydroxypropylcellulose) (HPC)) 128 % of control; (dose: 31.3 mg/kg/injection, schedule: Q01DX001 (ip), vehicle: Klucel (hydroxypropylcellulose) (HPC)) 119 % of control; (dose: 31.3 mg/kg/injection, schedule: Q01DX005 (ip), vehicle: Klucel (hydroxypropylcellulose) (HPC)) 169 % of control. Moreover, the T/C runs as follows: (dose: 62.5 mg/kg/injection, schedule: Q01DX001 (ip), vehicle: Klucel (hydroxypropylcellulose) (HPC)) 133 % of control; (dose: 62.5 mg/kg/injection, schedule: Q01DX005 (ip), vehicle: Klucel (hydroxypropylcellulose) (HPC)) 189 % of control; (dose: 125.0 mg/kg/injection, schedule: Q01DX001 (ip), vehicle: Klucel (hydroxypropylcellulose) (HPC)) 126 [4 of 6 alive] and 165 % of control. The survivor count was 6 of 6 (dose: 125.0 mg/kg/injection, schedule: Q01DX005 (ip), vehicle: Klucel (hydroxypropylcellulose) (HPC)); 3 of 6 (dose: 250.0 mg/kg/injection, schedule: Q01DX001 (ip), vehicle: Klucel (hydroxypropylcellulose) (HPC)); 1 of 6 (dose: 500.0 mg/kg/injection, schedule: Q01DX001 (ip), vehicle: Klucel (hydroxypropylcellulose) (HPC)); 0 of 6 (dose: 1000.0 mg/kg/injection, schedule: Q01DX001 (ip), vehicle: Klucel (hydroxypropylcellulose) (HPC)).
For `O=CCCOP(=O)(N(CCCl)CCCl)N1CC1` (centres undefined), the T/C reads like this: (dose: 25.0 mg/kg/injection, schedule: Q01DX001 (ip), vehicle: DMSO, evaluated on day 35) 103 % of control; (dose: 25.0 mg/kg/injection, schedule: Q01DX001 (ip), vehicle: DMSO, evaluated on day 45) 127 % of control; (dose: 50.0 mg/kg/injection, schedule: Q01DX001 (ip), vehicle: DMSO, evaluated on day 35) 105 % of control; (dose: 50.0 mg/kg/injection, schedule: Q01DX001 (ip), vehicle: DMSO, evaluated on day 45) 143 % of control; (dose: 100.0 mg/kg/injection, schedule: Q01DX001 (ip), vehicle: DMSO, evaluated on day 35) 114 % of control; (dose: 100.0 mg/kg/injection, schedule: Q01DX001 (ip), vehicle: DMSO, evaluated on day 45) 138 % of control. The T/C by setting is: (dose: 200.0 mg/kg/injection, schedule: Q01DX001 (ip), vehicle: DMSO, evaluated on day 35) 128 % of control; (dose: 200.0 mg/kg/injection, schedule: Q01DX001 (ip), vehicle: DMSO, evaluated on day 45) 168 % of control; under setting [1], 140 % of control. The survivor count under setting [1] is 2 of 6.
For the molecule `CNNCCCl`, the T/C is 103 % of control (dose: 3.12 mg/kg/injection, schedule: Q01DX001 (ip), vehicle: saline); 103 % of control (dose: 3.12 mg/kg/injection, schedule: Q04DX003 (ip), vehicle: saline); 110 % of control (dose: 6.25 mg/kg/injection, schedule: Q01DX001 (ip), vehicle: saline); 115 % of control (dose: 6.25 mg/kg/injection, schedule: Q04DX003 (ip), vehicle: saline); 109 % of control (dose: 12.5 mg/kg/injection, schedule: Q01DX001 (ip), vehicle: saline); 115 % of control (dose: 12.5 mg/kg/injection, schedule: Q04DX003 (ip), vehicle: saline). The T/C by setting is: (dose: 25.0 mg/kg/injection, schedule: Q01DX001 (ip), vehicle: saline) 113 [4 of 6 alive] and 116 % of control [5 of 6 alive]; (dose: 25.0 mg/kg/injection, schedule: Q04DX003 (ip), vehicle: saline) 90 [5 of 6 alive] and 103 % of control. Also, the survivor count (dose: 50.0 mg/kg/injection, schedule: Q01DX001 (ip), vehicle: saline) is given as 0 of 6; the survivor count (dose: 50.0 mg/kg/injection, schedule: Q04DX003 (ip), vehicle: saline) is reported as 1 of 6; the survivor count (dose: 100.0 mg/kg/injection, schedule: Q01DX001 (ip), vehicle: saline) is recorded as 0 of 6; the survivor count under setting [2] was 0 of 6; the survivor count (dose: 200.0 mg/kg/injection, schedule: Q01DX001 (ip), vehicle: saline) was 0 of 6; the survivor count under setting [3] is 0 of 6.
For the molecule `CCCc1cccc2nc(-c3ccccc3)oc12.O=C1c2cc([N+](=O)[O-])ccc2-c2c1cc([N+](=O)[O-])cc2[N+](=O)[O-]`, the T/C reads like this: (dose: 25.0 mg/kg/injection, schedule: Q01DX001 (ip), vehicle: saline with Tween-80) 101 % of control [survivor count not shown]; (dose: 50.0 mg/kg/injection, schedule: Q01DX001 (ip), vehicle: saline with Tween-80) 91 % of control [survivor count not shown]; (dose: 50.0 mg/kg/injection, schedule: Q04DX002 (ip), vehicle: saline with Tween-80) 87 % of control [survivor count not shown]; (dose: 100.0 mg/kg/injection, schedule: Q01DX001 (ip), vehicle: saline with Tween-80) 93 % of control [survivor count not shown]; (dose: 100.0 mg/kg/injection, schedule: Q04DX002 (ip), vehicle: saline with Tween-80) 90 % of control [survivor count not shown].
With `NC(=O)Nc1ccc(N(CCCl)CCCl)cc1`, the T/C is 108 and 154 % of control (dose: 0.39 mg/kg/injection, schedule: Q01DX009 (ip), vehicle: Klucel (hydroxypropylcellulose) (HPC)); 102, 103, 112 % of control (dose: 0.78 mg/kg/injection, schedule: Q01DX009 (ip), vehicle: Klucel (hydroxypropylcellulose) (HPC)); 104, 112, 115 % of control (dose: 1.56 mg/kg/injection, schedule: Q01DX009 (ip), vehicle: Klucel (hydroxypropylcellulose) (HPC)); 102, 112, 115, 122 % of control (dose: 3.12 mg/kg/injection, schedule: Q01DX009 (ip), vehicle: Klucel (hydroxypropylcellulose) (HPC)); 112, 117, 119 % of control (dose: 6.25 mg/kg/injection, schedule: Q01DX009 (ip), vehicle: Klucel (hydroxypropylcellulose) (HPC)); 115, 124, 141 % of control (dose: 12.5 mg/kg/injection, schedule: Q01DX009 (ip), vehicle: Klucel (hydroxypropylcellulose) (HPC)). Moreover, the T/C by setting is: (dose: 25.0 mg/kg/injection, schedule: Q01DX009 (ip), vehicle: Klucel (hydroxypropylcellulose) (HPC)) 90, 93, 97 % of control; (dose: 50.0 mg/kg/injection, schedule: Q01DX009 (ip), vehicle: Klucel (hydroxypropylcellulose) (HPC)) 89 % of control. Also, the survivor count (dose: 100.0 mg/kg/injection, schedule: Q01DX009 (ip), vehicle: Klucel (hydroxypropylcellulose) (HPC)) was 0 of 6.
Take `CN(C)CCOC(=O)C(O)(c1ccccc1)C1CCCCC1` (centres undefined): the T/C is 91 % of control (dose: 75.0 mg/kg/injection, schedule: Q01DX001 (ip), vehicle: other) and 100 % of control (dose: 150.0 mg/kg/injection, schedule: Q01DX001 (ip), vehicle: other).
Take `CCCCO[P+](=O)O`: the T/C by setting is: under setting [2], 102 % of control; under setting [3], 102 % of control; (dose: 400.0 mg/kg/injection, schedule: Q04DX003 (ip), vehicle: saline) 94 % of control.
Consider `Cc1ccc(Nc2c([N+](=O)[O-])cc([N+](=O)[O-])cc2[N+](=O)[O-])cc1`, for which the T/C (dose: 100.0 mg/kg/injection, schedule: Q04DX003 (ip), vehicle: saline with Tween-80) was 95 % of control [survivor count not shown]; the T/C (dose: 200.0 mg/kg/injection, schedule: Q04DX003 (ip), vehicle: saline with Tween-80) is 91 % of control [survivor count not shown]; the T/C (dose: 400.0 mg/kg/injection, schedule: Q04DX003 (ip), vehicle: saline with Tween-80) was 91 % of control [survivor count not shown].
